{"source": "PubChem BioAssay AID1259254 (NCATS, 2017)", "purpose": "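Genome-wide screen for genes that prevent DNA re-replication in cancer cells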 (primary screen)", "cells": "human HCT116 colorectal cancer cells", "reagents": "single siRNA against human genes", "timing": "3 days", "detection": "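Nuclei stained with Hoechst and imaged; cell-cycle phase assigned by DNA content; G2 share scaled per plate, non-targeting siRNA 0%, GMNN siRNA 100%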", "direction": "G2 robust z-score and G2 cells, % of GMNN control: higher = more G2 cells, more excess DNA replication", "hit rule": "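An siRNA counts as active if its G2 robust z-score lies at least 5 MADs above the screen median; here such calls match roughly 38% of GMNN control or more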", "note": "The deposit covers about 59,000 reagents; shown is an unselected part. About 1,550 of all reagents (2.6%) were called active. 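G2 share is only a proxy for re-replication; each gene was hit by three separate siRNAs, and active genes were retested.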 Unmarked entries are inactive. Reagents against one gene are numbered here. Further read-outs or replicates are left out here. Reagent sequences are not shown. Not stated in the record: the amount of reagent."}
{"Target gene": "SPMIP11 (GeneID 255411)", "siRNA no.": 1, "G2 robust z-score": -0.286, "G2 cells, % of GMNN control": 0.957}
{"Target gene": "SPMIP11 (GeneID 255411)", "siRNA no.": 2, "G2 robust z-score": 0.494, "G2 cells, % of GMNN control": 6.44}
{"Target gene": "SPMIP11 (GeneID 255411)", "siRNA no.": 3, "G2 robust z-score": -0.129, "G2 cells, % of GMNN control": 2.06}
{"Target gene": "SLC2A12 (GeneID 154091)", "siRNA no.": 1, "G2 robust z-score": 2.8, "G2 cells, % of GMNN control": 22.7}
{"Target gene": "SLC2A12 (GeneID 154091)", "siRNA no.": 2, "G2 robust z-score": -0.204, "G2 cells, % of GMNN control": 1.53}
{"Target gene": "SLC2A12 (GeneID 154091)", "siRNA no.": 3, "G2 robust z-score": -0.737, "G2 cells, % of GMNN control": -2.22}
{"Target gene": "KSR1 (GeneID 8844)", "siRNA no.": 1, "G2 robust z-score": -1.25, "G2 cells, % of GMNN control": -5.85}
{"Target gene": "KSR1 (GeneID 8844)", "siRNA no.": 2, "G2 robust z-score": -0.0984, "G2 cells, % of GMNN control": 2.28}
{"Target gene": "KSR1 (GeneID 8844)", "siRNA no.": 3, "G2 robust z-score": 2.86, "G2 cells, % of GMNN control": 23.1}
{"Target gene": "SKA2P1 (GeneID 729012)", "siRNA no.": 1, "G2 robust z-score": 0.456, "G2 cells, % of GMNN control": 6.18}
{"Target gene": "SKA2P1 (GeneID 729012)", "siRNA no.": 2, "G2 robust z-score": 0.174, "G2 cells, % of GMNN control": 4.19}
{"Target gene": "SKA2P1 (GeneID 729012)", "siRNA no.": 3, "G2 robust z-score": -0.789, "G2 cells, % of GMNN control": -2.58}

Quoted from above, 2 entries:
{"Target gene": "SLC2A12 (GeneID 154091)", "siRNA no.": 3, "G2 robust z-score": -0.737, "G2 cells, % of GMNN control": -2.22}
{"Target gene": "KSR1 (GeneID 8844)", "siRNA no.": 1, "G2 robust z-score": -1.25, "G2 cells, % of GMNN control": -5.85}
